Here are results for five molecules from paper PMC3912011.

These are yes or no findings as the source states them, for the method shown. Binding seen in cells or lysates may run through a third protein. A yes stands for co-enrichment or nearness to the bait. Other partners may have been found. Tags and fused reporters may be left off the sequences shown.

T1: GCDH His6-fusion protein (human glutaryl-CoA dehydrogenase, mature enzyme) (human) (UniProt Q92947)
T1 sequence: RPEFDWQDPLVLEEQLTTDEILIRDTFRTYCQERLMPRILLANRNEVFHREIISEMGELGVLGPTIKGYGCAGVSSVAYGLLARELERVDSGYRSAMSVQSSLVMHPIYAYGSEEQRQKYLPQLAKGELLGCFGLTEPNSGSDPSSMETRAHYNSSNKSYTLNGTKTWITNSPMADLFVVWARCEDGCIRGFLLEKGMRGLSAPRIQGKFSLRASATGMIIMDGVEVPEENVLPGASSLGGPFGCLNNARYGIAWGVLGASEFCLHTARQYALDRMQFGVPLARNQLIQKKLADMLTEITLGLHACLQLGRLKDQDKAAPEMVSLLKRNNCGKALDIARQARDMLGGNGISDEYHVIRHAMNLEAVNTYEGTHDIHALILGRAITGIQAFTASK

B1: aldehyde dehydrogenase 2 (enzyme, UniProt Q2XQV4 22-521)
chain: SAAPTQAVPAPNQQPEIFYNQIFINNEWHDAISKKTFPTVNPSTGDVICHVAEGDKEDVDRAVEAARAAFQLGSPWRRLDASDRGRLLNRLADLIERDRTYLAALETLDNGKPYVISYLVDLDMVLKCLRYYAGWADKYHGKTLPIDGDYFSYTRHEPVGVCGQIIPWNFPLLMQAWKLGPALATGNVVVMKVSEQTPLTALYVANLIKEAGFPPGVVNIVPGYGPTAGAAIASHEDVDKVAFTGSTEVGHLIQVAAGKSNLKRVTLELGGKSPNIIMSDADMDWAVEQAHFALFFNQGQCCCAGSRTFVQEDIYAEFVERSVARARSRVVGNPFDSRTEQGPQIDETQFKKILGYIKSGKEEGAKLLCGGGAAADRGYFIQPTVFGDVQDGMTIAKEEIFGPVMQILKFKTIEEVIGRANNSKYGLAAAVFTKDLDKANYLSQALQAGTVWVNCYDVFGAQSPFGGYKLSGSGRELGEYGLQAYTEVKTVTVKVPQKNS
B2: electron transfer flavoprotein subunit beta (pig liver mitochondrial matrix) (protein, UniProt Q6UAQ8 1-255)
chain: MAELRALVAVKRVIDFAVKIRVKPDRTGVVMDGVKHSMNPFCEIAVEEAVRLKEKKLVKEVIAVSCGPAQCQETIRTALAMGADRGIHVEVPAAEAHHLGPLQVARVLAKLAQKEKVDLVLLGKQAIDDDCNQTGQMTAGFLDWPQGTFASQVTLEGDKVKVEREIDGGLETLRLKLPAVVTADLRLNEPRYATLPNIMKAKKKKIEVIKAGDLGVDLTSKLSVVSVEDPPQRVAGVKVETTEDLVAKLREIGRI

This test addresses T1, GCDH His6-fusion protein (human glutaryl-CoA dehydrogenase, mature enzyme) (human). In words: affinity purification with mass spectrometry; GCDH-His6 coupled covalently to Affi-Gel 10; 1 mg pig liver mitochondrial matrix protein extract, 12 h at 4°C; wash with 50 mM Hepes pH 7.5, 5 mM KCl, 120 mM NaCl; elution with 1.5 M NaCl; LC-MS/MS of the eluate; only the target purified.
As to “thioredoxin-dependent peroxide reductase (enzyme)”, the binding entry is on record as “binds”. Turning to “ATP synthase subunit alpha (from UniProt P80021)”, the binding result is listed as “binds”. With ATP synthase subunit beta the entry was “binds”; with B1, “binds”. Next, B2: “binds”.
